## Library screen at single concentrations

Chains of the proteins cited; added tags and fusions are not shown. Residues count along the entry.
UniProt P9WPC5, whole entry: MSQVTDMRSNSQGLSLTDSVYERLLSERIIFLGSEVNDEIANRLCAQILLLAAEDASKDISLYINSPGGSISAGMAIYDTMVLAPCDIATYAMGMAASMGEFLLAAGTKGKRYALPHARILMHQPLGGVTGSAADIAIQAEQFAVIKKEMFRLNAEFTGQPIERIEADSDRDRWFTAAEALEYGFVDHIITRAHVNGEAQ
UniProt P9WPC3, whole entry partner: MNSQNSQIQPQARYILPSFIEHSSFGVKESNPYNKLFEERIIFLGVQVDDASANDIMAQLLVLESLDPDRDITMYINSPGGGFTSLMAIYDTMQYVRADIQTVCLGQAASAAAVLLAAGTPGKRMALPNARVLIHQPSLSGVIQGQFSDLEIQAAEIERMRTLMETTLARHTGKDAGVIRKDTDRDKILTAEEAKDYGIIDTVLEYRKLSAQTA
UniProt Q4DA54, 1-478: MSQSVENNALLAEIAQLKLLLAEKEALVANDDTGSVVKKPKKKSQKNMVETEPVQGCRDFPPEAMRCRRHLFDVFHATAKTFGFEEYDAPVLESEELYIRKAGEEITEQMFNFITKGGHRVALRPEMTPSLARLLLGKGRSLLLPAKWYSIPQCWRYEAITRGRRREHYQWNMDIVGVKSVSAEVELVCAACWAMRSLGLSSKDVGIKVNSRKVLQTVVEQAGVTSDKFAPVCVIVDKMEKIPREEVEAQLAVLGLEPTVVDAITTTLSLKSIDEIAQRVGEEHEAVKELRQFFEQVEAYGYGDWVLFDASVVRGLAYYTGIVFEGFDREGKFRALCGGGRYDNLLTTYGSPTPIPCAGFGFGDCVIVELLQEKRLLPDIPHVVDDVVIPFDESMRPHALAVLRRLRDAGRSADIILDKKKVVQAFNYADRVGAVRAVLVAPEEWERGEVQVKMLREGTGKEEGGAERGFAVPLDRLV
UniProt P9WNZ1, whole entry: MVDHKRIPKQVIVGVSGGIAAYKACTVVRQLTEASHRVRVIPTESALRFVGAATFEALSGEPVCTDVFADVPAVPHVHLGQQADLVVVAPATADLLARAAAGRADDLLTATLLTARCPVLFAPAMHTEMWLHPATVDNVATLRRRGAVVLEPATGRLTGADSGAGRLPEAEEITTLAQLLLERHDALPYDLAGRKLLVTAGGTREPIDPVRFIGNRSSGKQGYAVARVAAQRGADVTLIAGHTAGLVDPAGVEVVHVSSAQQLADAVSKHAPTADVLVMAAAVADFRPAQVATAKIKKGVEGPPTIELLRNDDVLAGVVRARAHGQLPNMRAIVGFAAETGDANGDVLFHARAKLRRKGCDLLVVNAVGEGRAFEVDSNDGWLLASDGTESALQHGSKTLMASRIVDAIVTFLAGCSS

Source: ChEMBL document CHEMBL3988442, “University of Dundee, Small-Polar-MMV Screening Library” (2021).

Each number is a percent effect as filed. The controls that fix the scale are not given in the record; negative values are as filed. The compounds are a random part of those screened.

ClpP1P2: 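ClpP1P2, Mycobacterium tuberculosis (UniProt P9WPC5 and UniProt P9WPC3). Protease assay of ClpP1P2, read by the AMC dye that it sets free. Concentration: 50 µM. Direction is inferred from only a few compounds that gave an IC50; most scored high, so higher reads as stronger inhibition. Most other retested compounds had strongly negative values. Of about 69,000 compounds tested this way, about 10 (0.015%) reached 50% or more in at least one test.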
Toxoplasma: 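Assay of Toxoplasma gondii numbers, read through their beta-galactosidase reporter with a colour substrate. Compounds at 10 µM. The record gives no direction; the compounds picked for IC50 retests had high values, so higher reads as fewer parasites. Of about 67,000 compounds tested this way, about 260 (0.38%) reached 50% or more in at least one test.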
Leishmania in macrophages: 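Cell assay of Leishmania donovani living inside macrophages; the read-out is not stated. Tested at 30 µM. Direction is inferred from retests: higher values go with stronger inhibition. Size under these conditions: about 69,000 compounds, about 1,000 of them at 50% or above in at least one test.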
TcHisRS: 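Enzyme assay of histidyl-tRNA synthetase; the read-out is not stated. Target: Histidine-tRNA ligase, Trypanosoma cruzi CL Brener (UniProt Q4DA54). Concentration: 30 µM. The record gives no direction; compounds that gave an IC50 in retests scored well above the rest, so higher reads as stronger inhibition. Of about 69,000 compounds tested this way, about 31 (0.045%) reached 50% or more in at least one test.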
CoaBC: 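Coenzyme A biosynthesis protein CoaBC, Mycobacterium tuberculosis (UniProt P9WNZ1). Enzyme assay of CoaBC with a phosphate dye (Biomol Green) read at 650 nm. Compounds at 30 µM. Higher reads as stronger inhibition, judged from the few compounds that gave an IC50. Most strong results did not repeat in a second test. Of about 67,000 compounds tested this way, about 40 (0.06%) reached 50% or more in at least one test.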

structure: CC(C)(N)c1cn(C2CCN(c3ncccc3Cl)CC2)nn1
ClpP1P2: -13.11
Toxoplasma: -11.21
Leishmania in macrophages: 1.266
TcHisRS: 0.578
CoaBC: 1.985

structure: COC(=O)CNC(=O)Cn1ccc2ccc(F)cc21
ClpP1P2: -14.05
Toxoplasma: -5.304
Leishmania in macrophages: 14.64
TcHisRS: 7.292
CoaBC: 1.611

structure: CCN(CC)Cc1cc(C(=O)N2CCC3(CCN(C)CC3)C2)c(C)o1
ClpP1P2: 5.19
Toxoplasma: 1.902
Leishmania in macrophages: 26.11
TcHisRS: 4.433
CoaBC: -16.45

structure: [H][C@@]12CCN(S(=O)(=O)c3cccnc3)C[C@]1(c1nc(C)no1)CCO2
Toxoplasma: -3.751
Leishmania in macrophages: 57.7

structure: CC(C)Oc1ncnc2c1CCN(Cc1ccc(F)cc1)CC2
ClpP1P2: -23.65
TcHisRS: 2.488
CoaBC: 1.29

structure: CC(C)(C)c1noc(CN2CCCN(Cc3cccs3)CC2)n1
ClpP1P2: 15.55
Toxoplasma: 0.4235
Leishmania in macrophages: -9.279
TcHisRS: 0.7634
CoaBC: -0.7229

structure: CSCc1ccc(CNCCCN2CCOCC2)o1
ClpP1P2: 8.605
Toxoplasma: 8.352
Leishmania in macrophages: 14.78
TcHisRS: 6.863
CoaBC: -4.147

structure: Cn1nc(C#N)c2c1CN(C(=O)c1ccsc1)CCC2
ClpP1P2: -4.044
Toxoplasma: -5.183
Leishmania in macrophages: 15.7
TcHisRS: 9.836
CoaBC: 5.011

structure: CC(C)CNc1nc(C(=O)/N=c2\[nH]nc(C(C)(C)C)s2)cs1
ClpP1P2: 5.836
Toxoplasma: 0.3064
Leishmania in macrophages: -9.293
TcHisRS: 4.132
CoaBC: -6.14

structure: NC(=O)CN1CC(O)c2ccccc2S1(=O)=O (stereo not drawn)
ClpP1P2: 0.6985
Toxoplasma: -7.6
Leishmania in macrophages: 5.558
TcHisRS: 6.742
CoaBC: 1.695

structure: CCCn1ncc(CN(Cc2cccnc2)Cc2ccsc2)c1C
ClpP1P2: -9.542
Toxoplasma: -0.4528
Leishmania in macrophages: 31.15
TcHisRS: 5.063
CoaBC: 2.644

structure: CC(C)c1nc(O)c2nnn(C[C@@H]3CCCN(Cc4ccsc4)C3)c2n1
ClpP1P2: -14.11
Leishmania in macrophages: 17.02
TcHisRS: 6.154
CoaBC: 3.563

structure: c1ccc(C2(CNCc3cnc(N4CCOCC4)nc3)CC2)cc1
ClpP1P2: -2.943
Toxoplasma: 18.27
Leishmania in macrophages: -69.91
TcHisRS: 3.509
CoaBC: -10.45

structure: CCc1noc(CN2CCCC2C(=O)OCc2ccccc2)n1 (stereo not drawn)
ClpP1P2: -1.304
Toxoplasma: 1.919
Leishmania in macrophages: 15.15
TcHisRS: 0
CoaBC: 5.104

structure: CC(C)NC(=O)NCCCc1cc(N)n(-c2ccccc2)n1
ClpP1P2: 1.495
Toxoplasma: -2.627
Leishmania in macrophages: 6.086
TcHisRS: 3.306
CoaBC: 16.42

structure: Cc1cccc(NC(=O)C2CCCN2C(=O)c2ccco2)c1C (stereo not drawn)
ClpP1P2: 4.152
Toxoplasma: -13.93
Leishmania in macrophages: -21.62
TcHisRS: 0
CoaBC: 2.959

structure: CCSc1ccc(NC(=O)NC2CCc3[nH]ncc3C2)cn1 (stereo not drawn)
ClpP1P2: -8.715
Toxoplasma: -2.005
Leishmania in macrophages: 20.49
TcHisRS: 3.797
CoaBC: 1.442

structure: Cc1cccc(N2CCC3(CCCN(C(=O)c4cccnc4)C3)CC2)n1
ClpP1P2: 1.828
TcHisRS: 7.2
CoaBC: -8.28

structure: CCOCCC(=O)N1CCCC(c2cc(C(F)(F)F)[nH]n2)C1 (stereo not drawn)
ClpP1P2: -1.238
Toxoplasma: 3.653
Leishmania in macrophages: -13.63
TcHisRS: 3.704
CoaBC: 2.982

structure: Cc1ccsc1CNC(=O)c1ccc(N2CCNC2=O)cc1
ClpP1P2: 11.31
Toxoplasma: 7.803
Leishmania in macrophages: 30.89
TcHisRS: 2.521
CoaBC: -7.661

structure: Cn1cc(C(=O)NCc2cn3c(n2)CN(Cc2ccncc2)CC3)cn1
ClpP1P2: 10.43
Toxoplasma: 15.63
Leishmania in macrophages: -12.22
TcHisRS: 4.294
CoaBC: 6.018

structure: O=C(NCCn1cccc1)C(c1ccccc1)N1CCCC1 (stereo not drawn)
ClpP1P2: -4.219
Toxoplasma: -0.9949
Leishmania in macrophages: 23.94
TcHisRS: 13.64
CoaBC: 3.155

structure: O=C(Nc1ccccc1C(=O)NCCCN1CCOCC1)c1ccco1
ClpP1P2: -1.604
Toxoplasma: -1.948
Leishmania in macrophages: 29.25
TcHisRS: -2.381
CoaBC: -2.334

For reference, 2 entries once more:

* O=C(NCCn1cccc1)C(c1ccccc1)N1CCCC1 (stereo not drawn) : ClpP1P2: -4.219%; Toxoplasma: -0.9949%; Leishmania in macrophages: 23.94%; TcHisRS: 13.64%; CoaBC: 3.155%
* CC(C)(N)c1cn(C2CCN(c3ncccc3Cl)CC2)nn1 : ClpP1P2: -13.11%; Toxoplasma: -11.21%; Leishmania in macrophages: 1.266%; TcHisRS: 0.578%; CoaBC: 1.985%